Common to all, as to assay: minimum inhibitory concentration
Compound in one experiment: CN(C)c1cc(NC(=O)CNC(C)(C)C)c(O)c2c1C[C@H]1C[C@H]3[C@H](N(C)C)C(O)=C(C(N)=O)C(=O)[C@@]3(O)C(O)=C1C2=O [tigecycline]
Compound in a further experiment: CO[C@H]1/C=C/O[C@@]2(C)Oc3c(C)c(O)c4c(O)c(c(/C=N/N5CCN(C)CC5)c(O)c4c3C2=O)NC(=O)/C(C)=C\C=C\[C@H](C)[C@H](O)[C@@H](C)[C@@H](O)[C@@H](C)[C@H](OC(C)=O)[C@@H]1C [rifampicin]
Compound in the next experiment: C[C@@H](O)[C@H]1C(=O)N2C(C(=O)O)=C(SCCNC=N)C[C@H]12 [imipenem]
Compound in a further experiment: CC(=O)NC[C@H]1CN(c2ccc(N3CCOCC3)c(F)c2)C(=O)O1 [linezolid]
Compound in the next experiment: Cc1ncc([N+](=O)[O-])n1CCO [metronidazole]
Compound in another experiment: CN[C@H](CC(C)C)C(=O)N[C@H]1C(=O)N[C@@H](CC(N)=O)C(=O)N[C@H]2C(=O)N[C@H]3C(=O)N[C@H](C(=O)N[C@H](C(=O)O)c4cc(O)cc(O)c4-c4cc3ccc4O)[C@H](O)c3ccc(c(Cl)c3)Oc3cc2cc(c3O[C@@H]2O[C@H](CO)[C@@H](O)[C@H](O)[C@H]2O[C@H]2C[C@](C)(N)[C@H](O)[C@H](C)O2)Oc2ccc(cc2Cl)[C@H]1O [vancomycin]
Compound in a further experiment: C[C@@H](O)[C@H]1C(=O)N2C(C(=O)O)=C(S[C@@H]3CN[C@H](C(=O)N(C)C)C3)[C@H](C)[C@H]12 [meropenem]
Compound in another experiment: CCc1c(Cl)c(O)c(Cl)c(O)c1C(=O)O[C@H]1[C@H](O)[C@H](OC)[C@H](OC/C2=C\C=C\C[C@H](O)/C(C)=C/[C@H](CC)[C@@H](O[C@@H]3OC(C)(C)[C@@H](OC(=O)C(C)C)[C@H](O)[C@@H]3O)/C(C)=C/C(C)=C/C[C@@H]([C@@H](C)O)OC2=O)O[C@@H]1C [fidaxomicin]
Compound in a further experiment: CCC[C@@H]1C[C@@H](C(=O)N[C@@H]([C@H]2O[C@H](SC)[C@H](O)[C@@H](O)[C@H]2O)[C@H](C)Cl)N(C)C1 [clindamycin]

As for “Clostridioides difficile PCR ribotype 078 isolate #348 (European region: West, country: Netherlands, isolate source: Animal, ribotype: 078)”, the minimum inhibitory concentration in the experiment with tigecycline is under 0.03 µg/mL; in the experiment with rifampicin, under 0.001 µg/mL; with imipenem, 2 µg/mL; with linezolid, 2 µg/mL; in the experiment with metronidazole, 0.25 µg/mL; with vancomycin, 1 µg/mL. Further, the minimum inhibitory concentration with meropenem is 4 µg/mL; in the experiment with fidaxomicin, 0.03 µg/mL; in the experiment with clindamycin it was 2 µg/mL.

On to “Clostridioides difficile PCR ribotype 078 isolate #349 (European region: West, country: France, isolate source: Animal, ribotype: 078)”, for which the minimum inhibitory concentration with tigecycline is 0.06 µg/mL; in the experiment with rifampicin, under 0.001 µg/mL; in the experiment with imipenem it was 2 µg/mL; in the experiment with linezolid, 2 µg/mL; in the experiment with metronidazole, under 0.125 µg/mL; with vancomycin, 1 µg/mL. For the same test system, the values for the minimum inhibitory concentration in the experiment with meropenem, in the experiment with fidaxomicin and with clindamycin were 2 µg/mL, 0.03 µg/mL and 2 µg/mL, respectively.

For “Clostridioides difficile PCR ribotype 078 isolate #350 (European region: South, country: Spain, isolate source: Animal, ribotype: 078)”, the minimum inhibitory concentration with tigecycline was 0.06 µg/mL; with rifampicin, under 0.001 µg/mL; with imipenem, 1 µg/mL; with linezolid it was 2 µg/mL; with metronidazole, under 0.125 µg/mL; with vancomycin it was 0.5 µg/mL. The minimum inhibitory concentration in the experiment with meropenem is 4 µg/mL; with fidaxomicin, 0.03 µg/mL; with clindamycin it was 2 µg/mL.

Regarding “Clostridioides difficile PCR ribotype 078 isolate #351 (European region: South, country: Spain, isolate source: Animal, ribotype: 078)”, the minimum inhibitory concentration was 0.06 µg/mL with tigecycline; under 0.001 µg/mL in the experiment with rifampicin; 0.5 µg/mL with imipenem; 2 µg/mL in the experiment with linezolid; under 0.125 µg/mL in the experiment with metronidazole; 0.5 µg/mL with vancomycin. Further, the minimum inhibitory concentration with meropenem was 2 µg/mL; with fidaxomicin, 0.03 µg/mL; in the experiment with clindamycin, 8 µg/mL.

In the case of “Clostridioides difficile PCR ribotype 078 isolate #352 (European region: South, country: Spain, isolate source: Animal, ribotype: 078)”, the minimum inhibitory concentration with tigecycline is 0.06 µg/mL; with rifampicin, under 0.001 µg/mL; in the experiment with imipenem it was 1 µg/mL; with linezolid, 2 µg/mL; with metronidazole it was 0.25 µg/mL; with vancomycin, 0.5 µg/mL. Further, the minimum inhibitory concentration in the experiment with meropenem was 2 µg/mL; in the experiment with fidaxomicin, 0.03 µg/mL; with clindamycin, 8 µg/mL.

For the test system “Clostridioides difficile PCR ribotype 078 isolate #353 (European region: South, country: Spain, isolate source: Animal, ribotype: 078)”, the minimum inhibitory concentration with tigecycline was 0.06 µg/mL; in the experiment with rifampicin, under 0.001 µg/mL; with imipenem, 0.5 µg/mL; with linezolid, 2 µg/mL; with metronidazole it was under 0.125 µg/mL; in the experiment with vancomycin, 0.5 µg/mL. Also, the results for the minimum inhibitory concentration with meropenem, with fidaxomicin and with clindamycin were 2 µg/mL, 0.015 µg/mL and 8 µg/mL, respectively.

For the test system “Clostridioides difficile PCR ribotype 078 isolate #354 (European region: South, country: Spain, isolate source: Animal, ribotype: 078)”, the minimum inhibitory concentration with tigecycline was 0.125 µg/mL; with rifampicin it was under 0.001 µg/mL; with imipenem, 2 µg/mL; in the experiment with linezolid, 2 µg/mL; in the experiment with metronidazole, 0.25 µg/mL; with vancomycin it was 0.5 µg/mL. The values for the minimum inhibitory concentration in the experiment with meropenem, with fidaxomicin and in the experiment with clindamycin were 4 µg/mL, 0.03 µg/mL and 2 µg/mL, respectively.

For “Clostridioides difficile PCR ribotype 078 isolate #355 (European region: South, country: Spain, isolate source: Animal, ribotype: 078)”, the minimum inhibitory concentration with tigecycline was 0.06 µg/mL; with rifampicin, under 0.001 µg/mL; with imipenem, 2 µg/mL; with linezolid it was 2 µg/mL; with metronidazole, 0.25 µg/mL; in the experiment with vancomycin it was 0.5 µg/mL. In addition, the minimum inhibitory concentration with meropenem amounted to 4 µg/mL; with fidaxomicin, 0.015 µg/mL; with clindamycin it was 4 µg/mL.

Take “Clostridioides difficile PCR ribotype 078 isolate #356 (European region: South, country: Spain, isolate source: Animal, ribotype: 078)”: the minimum inhibitory concentration with tigecycline is 0.125 µg/mL; with rifampicin it was under 0.001 µg/mL; in the experiment with imipenem, 1 µg/mL; with linezolid, 2 µg/mL; with metronidazole, 0.25 µg/mL; with vancomycin it was 1 µg/mL. For the same test system, the minimum inhibitory concentration stood at 4 µg/mL with meropenem, 0.015 µg/mL in the experiment with fidaxomicin and 2 µg/mL in the experiment with clindamycin.

As to “Clostridioides difficile PCR ribotype 078 isolate #357 (European region: West, country: Netherlands, isolate source: Animal, ribotype: 078)”, the minimum inhibitory concentration with tigecycline was 0.125 µg/mL; in the experiment with rifampicin, under 0.001 µg/mL; with imipenem, 2 µg/mL; with linezolid, 2 µg/mL; in the experiment with metronidazole, 0.25 µg/mL; with vancomycin, 0.5 µg/mL. Further, the values for the minimum inhibitory concentration in the experiment with meropenem, in the experiment with fidaxomicin and with clindamycin were 4 µg/mL, 0.03 µg/mL and 2 µg/mL, respectively.

As for “Clostridioides difficile PCR ribotype 078 isolate #358 (European region: West, country: Netherlands, isolate source: Animal, ribotype: 078)”, the minimum inhibitory concentration in the experiment with tigecycline was 0.125 µg/mL; with rifampicin, under 0.001 µg/mL; with imipenem, 2 µg/mL; with linezolid it was 2 µg/mL; in the experiment with metronidazole, 2 µg/mL; with vancomycin it was 0.5 µg/mL. For the same test system, the minimum inhibitory concentration worked out at 4 µg/mL in the experiment with meropenem, 0.03 µg/mL with fidaxomicin and 2 µg/mL in the experiment with clindamycin.
